# Inconclusive results, whose numbers are uncertain, are shown with a selection of clear calls. Potencies of inconclusive entries are doubtful fits and often do not repeat. More than one record can exist for a structure, and the calls need not agree. Active and inactive are the calls of the source. Rule for the calls: active = hit-call score of the fitted dose curve at least 0.9, where 1 is the maximum; inconclusive = response in the unintended direction; inactive = score below 0.9.
# Sequences of proteins named here, by UniProt entry; tags and fusion partners are left off.
# UniProt P04637, whole entry, looked up: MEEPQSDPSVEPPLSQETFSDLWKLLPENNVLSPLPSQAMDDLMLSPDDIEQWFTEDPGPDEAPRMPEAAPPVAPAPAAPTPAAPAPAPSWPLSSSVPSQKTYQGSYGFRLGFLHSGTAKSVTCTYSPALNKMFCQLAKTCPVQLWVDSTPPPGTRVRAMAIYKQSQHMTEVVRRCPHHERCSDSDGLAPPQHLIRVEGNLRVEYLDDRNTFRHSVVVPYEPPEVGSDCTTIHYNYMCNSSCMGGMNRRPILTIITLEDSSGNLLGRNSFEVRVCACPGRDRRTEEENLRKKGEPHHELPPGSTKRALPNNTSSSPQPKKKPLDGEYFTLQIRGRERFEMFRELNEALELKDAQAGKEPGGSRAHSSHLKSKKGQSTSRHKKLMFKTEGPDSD
# Assays:
# [1] = TOX21_p53_BLA_p3_viability: Viability Assessment in the Tox21 HCT-116 p53 Agonism Beta-lactamase Assay, Phase 3 (AID 2283593);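 note: cells exposed to compound for 16 h before reading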
# In short: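 Cellular ATP was quantified by CellTiter-Glo luminescence, read after 30 min at room temperature. Beforehand, HCT116 cells (4000/well) received compound 5 h post-seeding, 217-fold diluted from DMSO, then incubated 16 h at 37C.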
# [2] = TOX21_p53_BLA_p4_viability: Viability Assessment in the Tox21 HCT-116 p53 Agonism Beta-lactamase Assay, Phase 4 (AID 2283597);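 note: hits lower the luminescence signal meaning cytotoxicity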
# In short: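 ATP content by CellTiter-Glo luminescence, 30 min RT, read after the beta-lactamase ratio step. Cells: HCT116, 4000/well, compound added after 5 h, exposure 16 h at 37C. Signal loss = reduced viability.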
# [3] = target: Cellular tumor antigen p53 (Homo sapiens) (UniProt P04637); experiment: TOX21_p53_BLA_p5_ratio: Tox21 HCT-116 p53 Agonism Beta-lactamase Assay, Ratio, Phase 5 (AID 2283599)
# In short: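 Beta-lactamase reporter ratio (blue 460 nm over green 530 nm, 405 nm excitation) after 2 h CCF4-AM loading, in HCT-116 cells exposed 16 h at 37 C to compounds pinned at 217-fold dilution. Increases relative to DMSO baseline scored.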
# [4] = TOX21_p53_BLA_p5_viability: Viability Assessment in the Tox21 HCT-116 p53 Agonism Beta-lactamase Assay, Phase 5 (AID 2283600)
# In short: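 ATP luminescence (CellTiter-Glo, 30 min, RT) served as the viability read-out, with loss of signal indicating cytotoxicity. Compounds in DMSO were pinned at a 217-fold dilution onto 4000 cells/well and incubated 16 h, 37C.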
# [5] = target: Cellular tumor antigen p53 (Homo sapiens) (UniProt P04637); experiment: TOX21_p53_BLA_p4_ratio: Tox21 HCT-116 p53 Agonism Beta-lactamase Assay, Ratio, Phase 4 (AID 2283601)
# In short: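 Signal is the blue/green (460nm/530nm) ratio of cleaved versus uncleaved CCF4-AM substrate, read after 2 h substrate loading. Cells were HCT116 carrying the p53-responsive beta-lactamase reporter, dosed 16 h at 37C, 5% CO2; CellTiter-Glo measured in parallel.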
smiles,measurement,setting,value
CN(CC1(C)CCCO1)S(=O)(=O)c1ccc(Cl)c(S(N)(=O)=O)c1 (centres undefined),AC50,[1],inconclusive: 23 µM
same,AC50,[2],inconclusive: 23 µM
same,AC50,[3],inconclusive: 23 µM
C=CCSCC1Nc2cc(Cl)c(S(N)(=O)=O)cc2S(=O)(=O)N1 (centres undefined),AC50,[1],inconclusive: 23 µM
same,AC50,[2],inconclusive: 23 µM
same,AC50,[3],active: 5.9e-05 µM
same,AC50,[4],inconclusive: 23 µM
C[S+](C)CCC(N)C(=O)O (centres undefined),outcome,[1],inactive
same,outcome,[2],inactive
same,AC50,[3],inconclusive: 23 µM
COC(=O)[C@H]1[C@H]2C[C@@H]3c4[nH]c5ccccc5c4CCN3C[C@H]2C[C@@H](OC(=O)c2cc(OC)c(OC)c(OC)c2)[C@@H]1OC,AC50,[1],inconclusive: 0.00547 µM
same,AC50,[2],active: 6.8 µM
same,outcome,[2],inactive
same,outcome,[3],inactive
same,AC50,[5],active: 15.7 µM
same,outcome,[5],inactive
ClC1=C(Cl)C1(Cl)Cl,AC50,[1],inconclusive: 47.3 µM
same,outcome,[2],inactive
same,AC50,[3],inconclusive: 47.3 µM
C1=CC2C3C=CC(C3)C2C1 (centres undefined) (tested in a mixture with another compound),outcome,[1],inactive
same,outcome,[2],inactive
same,AC50,[3],inconclusive: 23 µM
O=C(O)CCCCCCCCCCCBr,outcome,[1],inactive
same,outcome,[2],inactive
same,AC50,[3],inconclusive: 46.2 µM
same,outcome,[4],inactive
CN(C)c1ccc(CCO)cc1,AC50,[1],inconclusive: 81 µM
same,AC50,[2],inconclusive: 45.9 µM
same,outcome,[3],inactive
N[C@@H](C(=O)N[C@@H]1C(=O)N2C(C(=O)O)=C(Cl)CS[C@H]12)c1ccccc1,AC50,[1],inconclusive: 0.385 µM
same,AC50,[2],inconclusive: 43.4 µM
same,AC50,[3],inconclusive: 23 µM
Cc1cccc(Oc2ccccc2)c1,outcome,[1],inactive
same,outcome,[2],inactive
same,AC50,[3],inconclusive: 45.1 µM
same,AC50,[4],inconclusive: 45.1 µM
CCCCCCCN,AC50,[1],inconclusive: 46.8 µM
same,AC50,[2],inconclusive: 74.6 µM
same,AC50,[3],inconclusive: 46.8 µM
same,AC50,[4],inconclusive: 46.8 µM
O=C(Cn1ccnc1[N+](=O)[O-])NCc1ccccc1,AC50,[1],inconclusive: 23 µM
same,AC50,[2],inconclusive: 0.231 µM
same,AC50,[3],inconclusive: 23 µM
Nc1cc(=O)[nH]c(N)n1,AC50,[1],inconclusive: 23 µM
same,AC50,[2],inconclusive: 23 µM
same,outcome,[3],inactive
CCCN(CCC)C(=O)C(CCC(=O)OCCCN1CCN(CCOC(=O)Cc2c(C)n(C(=O)c3ccc(Cl)cc3)c3ccc(OC)cc23)CC1)NC(=O)c1ccccc1 (centres undefined),outcome,[1],inactive
same,outcome,[2],inactive
same,outcome,[3],inactive
same,AC50,[4],inconclusive: 23 µM
O=C(CCCN1CCN(c2ccccn2)CC1)c1ccc(F)cc1,outcome,[1],inactive
same,AC50,[2],inconclusive: 23 µM
same,AC50,[3],inconclusive: 23 µM
same,outcome,[4],inactive
O=C(NC(Cc1cc(=O)[nH]c2ccccc12)C(=O)O)c1ccc(Cl)cc1 (centres undefined),AC50,[1],inconclusive: 1.54 µM
same,AC50,[2],inconclusive: 43.5 µM
same,AC50,[3],inconclusive: 23 µM
same,AC50,[4],inconclusive: 23 µM
O=C(O)c1cccc(C(=O)O)c1C(=O)O,outcome,[1],inactive
same,AC50,[2],inconclusive: 14.7 µM
same,outcome,[3],inactive
same,outcome,[4],inactive
OC[C@@H](O)[C@@H](O)CO,outcome,[1],inactive
same,outcome,[2],inactive
C=CC(=O)OCCOc1ccccc1,outcome,[1],inactive
same,AC50,[2],inconclusive: 76.4 µM
C[N+]1(C)CCCC(OC(=O)C(O)(c2ccccc2)c2ccccc2)C1 (centres undefined),outcome,[1],inactive
same,outcome,[2],inactive
same,outcome,[3],inactive
same,AC50,[4],inconclusive: 10.3 µM
OC(CN1CCC(Cc2ccc(F)cc2)CC1)c1ccc(Cl)cc1 (centres undefined),outcome,[1],inactive
same,outcome,[2],inactive
same,AC50,[3],inconclusive: 23 µM
COC(=O)C1=C(C)NC(C)=C(C(=O)OC)C1c1ccccc1[N+](=O)[O-],AC50,[1],active: 38.3 µM
same,outcome,[2],inactive
O=Cc1ccc(Cl)cc1,AC50,[1],inconclusive: 45.9 µM
same,AC50,[2],inconclusive: 45.9 µM
same,outcome,[3],inactive
same,outcome,[4],inactive
CC(C)C[P+](C)(CC(C)C)CC(C)C,outcome,[1],inactive
same,AC50,[2],inconclusive: 46.3 µM
CCC1OCC(COc2ccc(Oc3ccccc3)cc2)O1 (centres undefined),AC50,[1],inconclusive: 84.3 µM
same,AC50,[2],inconclusive: 46.1 µM
same,outcome,[3],inactive
O=S(=O)(O)CCN1CCN(CCO)CC1,AC50,[1],inconclusive: 45.4 µM
same,AC50,[2],inconclusive: 45.4 µM
same,AC50,[3],inconclusive: 45.4 µM
same,outcome,[4],inactive
CC1(C)[C@H](C(=O)O)N2C(=O)C[C@H]2S1(=O)=O,AC50,[1],inconclusive: 23 µM
same,AC50,[2],inconclusive: 43.7 µM
same,outcome,[3],inactive
same,AC50,[4],inconclusive: 23 µM
Cc1ncc(CSSCc2cnc(C)c(O)c2CO)c(CO)c1O,outcome,[1],inactive
same,outcome,[2],inactive
same,AC50,[3],inconclusive: 23 µM
same,outcome,[4],inactive
COc1cccc(OC)c1C(=O)N[C@@H]1C(=O)N2[C@@H]1SC(C)(C)[C@@H]2C(=O)O,AC50,[1],inconclusive: 39 µM
same,AC50,[2],inconclusive: 23 µM
same,AC50,[3],inconclusive: 23 µM
same,outcome,[4],inactive
CC12CCC(C1)C(C)(C)C2=O (centres undefined),AC50,[1],inconclusive: 23 µM
same,AC50,[2],inconclusive: 23 µM
same,AC50,[4],inconclusive: 23 µM
COc1cc(NS(=O)(=O)c2ccc(N)cc2)ncn1,AC50,[1],inconclusive: 20 µM
same,AC50,[2],inconclusive: 10.3 µM
same,outcome,[4],inactive
O=C(NCC(O)CO)c1c(I)c(C(=O)NCC(O)CO)c(I)c(N(CCO)C(=O)CO)c1I (centres undefined),AC50,[1],inconclusive: 10.3 µM
same,AC50,[2],inconclusive: 10.3 µM
same,AC50,[3],inconclusive: 10.3 µM
same,outcome,[5],inactive
CC(=O)CC(C)=O,outcome,[1],inactive
same,AC50,[2],inconclusive: 48 µM
same,AC50,[3],inconclusive: 48 µM
same,outcome,[4],inactive
same,AC50,[5],inconclusive: 48 µM
C=CC(C)(O)CC/C=C(\C)CCC=C(C)C (centres undefined),outcome,[1],inactive
same,AC50,[2],inconclusive: 23 µM
same,outcome,[4],inactive
COc1c(O)cc2c(c1O)[C@@H]1O[C@H](CO)[C@@H](O)[C@H](O)[C@H]1OC2=O,AC50,[1],inconclusive: 10.3 µM
same,AC50,[2],inconclusive: 10.3 µM
same,AC50,[4],inconclusive: 4.11 µM
Cc1c(NC(=O)c2cccnc2)c(=O)n(-c2ccccc2)n1C,AC50,[1],inconclusive: 10.3 µM
same,AC50,[2],inconclusive: 10.3 µM
same,outcome,[3],inactive
same,AC50,[5],inconclusive: 10.3 µM
Cc1ccc([N+](=O)[O-])c(N)c1,outcome,[1],inactive
same,AC50,[2],inconclusive: 45.1 µM
same,AC50,[4],inconclusive: 45.1 µM
CCN[C@H]1CN(CCCOC)S(=O)(=O)c2sc(S(N)(=O)=O)cc21,AC50,[1],inconclusive: 10.3 µM
same,outcome,[2],inactive
same,AC50,[4],inconclusive: 10.3 µM
Cc1cc2c(OCC(CNC(C)(C)C)OC(=O)c3ccccc3)cccc2[nH]1 (centres undefined),AC50,[1],inconclusive: 23 µM
same,AC50,[2],inconclusive: 23 µM
same,AC50,[3],inconclusive: 23 µM
same,outcome,[4],inactive
same,AC50,[5],inconclusive: 23 µM
CC(C)CCCC(C)CCCC(C)CCCCC(C)CCCC(C)CCCC(C)C (centres undefined),AC50,[1],inconclusive: 23 µM
same,AC50,[2],inconclusive: 5.82e-05 µM
same,AC50,[3],inconclusive: 23 µM
same,outcome,[4],inactive
Cc1cccc2cccnc12,outcome,[1],inactive
same,outcome,[2],inactive
same,AC50,[3],inconclusive: 79.6 µM
same,AC50,[4],inconclusive: 45.8 µM
same,AC50,[5],inconclusive: 45.8 µM
C[C@H](/C=C/[C@H](C)C(C)(C)O)[C@H]1CC[C@H]2/C(=C/C=C3C[C@@H](O)C[C@H](O)C3)CCC[C@]12C,AC50,[1],active: 30 µM
same,AC50,[2],inconclusive: 23 µM
same,AC50,[3],inconclusive: 23 µM
same,AC50,[5],inconclusive: 23 µM
CCC(=O)Oc1ccc2c(c1)CC[C@@H]1[C@@H]2CC[C@]2(C)[C@@H](OC(=O)CC)CC[C@@H]12,AC50,[1],inconclusive: 23 µM
same,outcome,[2],inactive
same,AC50,[3],inconclusive: 23 µM
same,AC50,[5],inconclusive: 23 µM
CNCCCCOc1ccccc1Cc1ccccc1,outcome,[1],inactive
same,AC50,[2],active: 36.4 µM
same,AC50,[3],inconclusive: 23 µM
same,AC50,[5],inconclusive: 23 µM
ON=C1CCCC1,AC50,[1],inconclusive: 30.3 µM
same,AC50,[2],inconclusive: 81.9 µM
same,AC50,[4],inconclusive: 47.4 µM
CO/N=C(/C(=O)N[C@@H]1C(=O)N2C(C(=O)OCOC(=O)C(C)(C)C)=C(C)CS[C@H]12)c1csc(N)n1,AC50,[1],inconclusive: 23 µM
same,outcome,[2],inactive
same,AC50,[3],inconclusive: 23 µM
same,AC50,[5],inconclusive: 23 µM
CCOc1ccc(O)cc1,AC50,[1],inconclusive: 46.1 µM
same,AC50,[2],inconclusive: 46.1 µM
same,AC50,[3],inconclusive: 46.1 µM
same,AC50,[4],inconclusive: 46.1 µM
same,AC50,[5],inconclusive: 46.1 µM
CN1C(=O)CC(C)(c2ccccc2)C1=O (centres undefined),outcome,[1],inactive
same,AC50,[2],inconclusive: 23 µM
same,AC50,[4],inconclusive: 23 µM
Cc1cccc(Br)c1,AC50,[1],inconclusive: 46.3 µM
same,AC50,[2],inconclusive: 46.3 µM
same,AC50,[4],inconclusive: 46.3 µM
O=[N+]([O-])c1cccc(S(=O)(=O)NCCNS(=O)(=O)c2cccc([N+](=O)[O-])c2)c1,AC50,[1],inconclusive: 23 µM
same,AC50,[2],inconclusive: 23 µM
same,AC50,[3],inconclusive: 23 µM
same,outcome,[4],inactive
same,outcome,[5],inactive
CCN(Cc1ccncc1)C(=O)C(CO)c1ccccc1 (centres undefined),AC50,[1],inconclusive: 23 µM
same,AC50,[2],inconclusive: 23 µM
same,AC50,[3],inconclusive: 23 µM
same,outcome,[4],inactive
same,AC50,[5],inconclusive: 23 µM
CC(=O)N/N=C/c1ccc([N+](=O)[O-])o1,AC50,[1],inconclusive: 0.595 µM
same,AC50,[2],active: 40.9 µM
same,AC50,[3],active: 34.9 µM
same,AC50,[5],active: 41.3 µM
CC1(C)CC(OC(=O)CCCCCCCCC(=O)OC2CC(C)(C)NC(C)(C)C2)CC(C)(C)N1,AC50,[1],inconclusive: 11.7 µM
same,outcome,[2],inactive
same,AC50,[3],inconclusive: 3.75 µM
same,AC50,[4],inconclusive: 11.7 µM
same,AC50,[5],inconclusive: 11.7 µM
O=P(O)(O)C(O)(Cc1cccnc1)P(=O)(O)O,outcome,[1],inactive
same,outcome,[2],inactive
same,AC50,[4],inconclusive: 23 µM
CC/C=C\C/C=C\C/C=C\C/C=C\C/C=C\C/C=C\CCC(=O)O,AC50,[1],inconclusive: 23 µM
same,AC50,[2],inconclusive: 0.0248 µM
same,outcome,[3],inactive
same,AC50,[4],inconclusive: 23 µM
same,outcome,[5],inactive

# Some of the entries so far, as tab-separated lines.
smiles	measurement	setting	value
ClC1=C(Cl)C1(Cl)Cl	AC50	[3]	inconclusive: 47.3 µM
CCCCCCCN	AC50	[4]	inconclusive: 46.8 µM
O=C(NC(Cc1cc(=O)[nH]c2ccccc12)C(=O)O)c1ccc(Cl)cc1 (centres undefined)	AC50	[2]	inconclusive: 43.5 µM
CCN[C@H]1CN(CCCOC)S(=O)(=O)c2sc(S(N)(=O)=O)cc21	outcome	[2]	inactive
Cc1cccc2cccnc12	AC50	[5]	inconclusive: 45.8 µM
CC1(C)CC(OC(=O)CCCCCCCCC(=O)OC2CC(C)(C)NC(C)(C)C2)CC(C)(C)N1	AC50	[3]	inconclusive: 3.75 µM

# Exported tab-delimited: part of the list above.
smiles	measurement	setting	value
O=C(Cn1ccnc1[N+](=O)[O-])NCc1ccccc1	AC50	[2]	inconclusive: 0.231 µM
OC[C@@H](O)[C@@H](O)CO	outcome	[1]	inactive
